Source: PubChem BioAssay AID504784 (Drosophila RNAi Screening Center, 2011)

Test: 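Search for regulators of lipid droplet storage in oleate-fed fly cells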 (primary screen)
Cells: Drosophila Kc167 embryonic cells
Reagents: long dsRNA against Drosophila genes, about 250 ng dsRNA per well
Timing: 4 days
Challenge: cells fed 400 µM oleic acid bound to BSA
Measurement: 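Cells imaged and segmented; ratio of lipid droplet area to nuclear area, log-transformed, then normalised as a B-score over the screen; higher means more stored lipid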
Reading the numbers: droplet/nuclear area B-score: higher = more stored lipid (overstorage)
In all, the deposit lists about 17,000 reagents; shown is an unselected part of those with a known target gene and a result. 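Each column is one replicate's B-score; the combined score over replicates was not deposited, so single values may mislead.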

gene | PubChem SID | droplet/nuclear area B-score, replicate 1 | droplet/nuclear area B-score, replicate 2 | droplet/nuclear area B-score, replicate 3
dgo (diego) | SID104185926 | 1.35 | 0.35 | –
CG17380 | SID104195022 | -0.726 | 0.178 | –
Hipk (Homeodomain interacting protein kinase) | SID104187677 | -1.32 | -0.114 | –
Hipk (Homeodomain interacting protein kinase) | SID104188299 | -0.975 | -2.8 | –
Hipk (Homeodomain interacting protein kinase) | SID104202512 | 1.26 | -0.072 | –
thetaTry (thetaTrypsin) | SID104187497 | -0.0199 | -0.768 | –
Tbca (Tubulin binding cofactor A) | SID104195187 | 0.637 | – | –
Cap-G (Chromosome associated protein G) | SID104186444 | 2.02 | 0.944 | –
Cap-G (Chromosome associated protein G) | SID104186445 | 0.446 | -1.73 | –
Cap-G (Chromosome associated protein G) | SID104201461 | 0.728 | -0.709 | –
Mco3 (Multicopper oxidase 3) | SID104195718 | -0.329 | 0.137 | –
Klp59C (Kinesin-like protein at 59C) | SID104184140 | 0.501 | 0.107 | –
CG7387 | SID104190625 | 0.88 | -0.721 | –
Mnr (Membrane-bound Notch regulator) | SID104200341 | -0.506 | 0.24 | –
Mnr (Membrane-bound Notch regulator) | SID104200342 | 1.14 | 0.61 | -1.21
Mnr (Membrane-bound Notch regulator) | SID104201912 | 0.138 | -0.0434 | –
RpL36 (Ribosomal protein L36) | SID104198500 | 1.73 | 2.45 | –
Idh (Isocitrate dehydrogenase) | SID104190571 | -0.134 | 2.71 | –
del (deadlock) | SID104182962 | 1.56 | -2.77 | –
drk (downstream of receptor kinase) | SID104187398 | 1.01 | 1.55 | –
l(2)k05819 (lethal (2) k05819) | SID104180618 | -0.465 | -1.37 | –
sei (seizure) | SID104184505 | – | -2.17 | –
Gr36c (Gustatory receptor 36c) | SID104182229 | 0.302 | -0.986 | –
CG7848 | SID104186842 | -0.903 | 2.36 | –
tay (tay bridge) | SID104199934 | -2.17 | -0.617 | 1.19
CG13693 | SID104180154 | -1.19 | 1.48 | –
CG16779 | SID104194945 | -0.881 | -0.261 | –
CG14191 | SID104199338 | 2.81 | -0.292 | –
ATPsynCF6 (ATP synthase, coupling factor 6) | SID104193884 | 1.24 | 1.62 | –
TBPH (TAR DNA-binding protein-43 homolog) | SID104184452 | 1.07 | 0.796 | –
Pgant6 (Polypeptide N-Acetylgalactosaminyltransferase 6) | SID104188344 | -0.0512 | 0.915 | –
CG31815 | SID104181340 | 0.113 | 0.212 | –
CG3216 | SID104184139 | 0.835 | 0.0856 | –
Ugt305A1 (UDP-glycosyltransferase family 305 member A1) | SID104188333 | -0.247 | 0.144 | –
Nmt (N-myristoyl transferase) | SID104191028 | -1.05 | 1.19 | –
beag | SID104195088 | 0.674 | 0.148 | –
CG1958 | SID104197988 | 1.51 | -1.02 | –
app (approximated) | SID104188951 | 0.982 | 0.622 | –
app (approximated) | SID104190038 | -0.702 | 0.52 | –
app (approximated) | SID104190318 | -1.12 | -1.32 | –
Peritrophin-15a | SID104182428 | 0.647 | -1.14 | –
AhcyL2 (Adenosylhomocysteinase like 2) | SID104193899 | 0.302 | 0.192 | –
AdamTS-A (ADAM metallopeptidase with thrombospondin type 1 motif A) | SID104194784 | -0.0631 | -0.0128 | –
AdamTS-A (ADAM metallopeptidase with thrombospondin type 1 motif A) | SID104195758 | 0.359 | 1.83 | –
ninaA (neither inactivation nor afterpotential A) | SID104180622 | 0.173 | -0.00478 | –
CG9646 | SID104187134 | -0.243 | -0.276 | –
Obp56b (Odorant-binding protein 56b) | SID104186343 | 0.103 | -0.0848 | –
CG31010 | SID104193798 | 3.03 | 0.641 | –
CG7430 | SID104190637 | -0.529 | -0.914 | -0.00783
Srp54 (Splicing regulatory protein 54) | SID104183234 | -3.02 | -2.62 | –
CG4914 | SID104190250 | -0.341 | -0.607 | –
Ipp (Inositol polyphosphate 1-phosphatase) | SID104196510 | 1.44 | 2.69 | –
CG4582 | SID104195397 | 0.0259 | -0.726 | –
ND-SGDH (NADH dehydrogenase (ubiquinone) SGDH subunit) | SID104190894 | 0.202 | 1.18 | –
CG11786 | SID104194181 | 1.01 | -0.421 | –
cona (corona) | SID104196073 | 1.44 | 0.918 | –
